In assay [1] the target is eGFP-TOPBP1 WT (human) (UniProt Q92547). The experiment in a line: co-IP; GFP-Trap agarose from benzonase-treated whole-cell lysates of transfected HEK293TN cells (nocodazole 100 ng/ml 18 h; in some panels asynchronous cells or 7 µM RO-3306 for 30 min); 200 mM NaCl, 0.2% Igepal, pH 7.5, 4 °C; western blot. In general terms: In western blotting, separated proteins are transferred to a membrane and probed.

Protein sequences, listed by entry. Tags and fused reporters are not part of them. Lines headed by an entry give the natural chain unless they say otherwise; changes in a name come on top. Chains listed by the source or under a name are the forms on record and can include a tag or linker.
UniProt Q92547: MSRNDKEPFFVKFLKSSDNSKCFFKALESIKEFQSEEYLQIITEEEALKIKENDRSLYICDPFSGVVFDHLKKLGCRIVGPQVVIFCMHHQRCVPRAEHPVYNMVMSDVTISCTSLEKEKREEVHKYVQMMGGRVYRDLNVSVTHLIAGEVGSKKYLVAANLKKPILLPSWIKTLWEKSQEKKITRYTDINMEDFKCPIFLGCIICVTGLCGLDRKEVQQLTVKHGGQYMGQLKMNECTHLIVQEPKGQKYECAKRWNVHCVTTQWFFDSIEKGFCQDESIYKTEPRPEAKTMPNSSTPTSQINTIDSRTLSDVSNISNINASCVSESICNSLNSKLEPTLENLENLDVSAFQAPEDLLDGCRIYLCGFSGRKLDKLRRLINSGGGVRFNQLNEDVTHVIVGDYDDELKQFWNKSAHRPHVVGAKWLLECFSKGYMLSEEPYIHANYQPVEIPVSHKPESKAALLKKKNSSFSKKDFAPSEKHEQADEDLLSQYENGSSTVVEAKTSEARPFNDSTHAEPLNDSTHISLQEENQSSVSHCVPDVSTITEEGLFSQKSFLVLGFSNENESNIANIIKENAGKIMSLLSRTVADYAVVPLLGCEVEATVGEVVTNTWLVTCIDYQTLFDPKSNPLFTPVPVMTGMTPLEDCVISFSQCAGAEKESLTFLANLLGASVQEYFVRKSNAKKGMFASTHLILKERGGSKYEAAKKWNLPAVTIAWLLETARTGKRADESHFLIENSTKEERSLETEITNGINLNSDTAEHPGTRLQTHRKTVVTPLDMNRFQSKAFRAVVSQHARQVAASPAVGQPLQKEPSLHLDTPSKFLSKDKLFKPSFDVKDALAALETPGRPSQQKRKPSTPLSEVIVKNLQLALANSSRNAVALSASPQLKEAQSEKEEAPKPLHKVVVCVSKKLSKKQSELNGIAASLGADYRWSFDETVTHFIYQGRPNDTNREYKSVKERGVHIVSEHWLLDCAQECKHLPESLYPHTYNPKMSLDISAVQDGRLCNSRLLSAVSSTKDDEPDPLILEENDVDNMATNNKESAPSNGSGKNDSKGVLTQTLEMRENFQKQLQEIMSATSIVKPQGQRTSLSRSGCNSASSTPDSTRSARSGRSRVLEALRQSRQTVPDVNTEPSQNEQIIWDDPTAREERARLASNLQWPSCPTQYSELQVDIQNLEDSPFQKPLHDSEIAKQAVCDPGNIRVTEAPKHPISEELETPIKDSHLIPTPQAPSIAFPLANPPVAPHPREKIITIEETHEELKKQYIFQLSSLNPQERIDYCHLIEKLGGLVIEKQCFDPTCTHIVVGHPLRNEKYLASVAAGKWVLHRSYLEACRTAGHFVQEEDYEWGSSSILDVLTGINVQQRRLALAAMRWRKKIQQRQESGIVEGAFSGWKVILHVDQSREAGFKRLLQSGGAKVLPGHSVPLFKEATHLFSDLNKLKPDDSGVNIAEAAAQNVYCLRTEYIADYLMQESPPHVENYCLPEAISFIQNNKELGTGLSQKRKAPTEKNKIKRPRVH
GST-TOPBP1(BRCT0-2 1-290) K155E (Q92547, form named): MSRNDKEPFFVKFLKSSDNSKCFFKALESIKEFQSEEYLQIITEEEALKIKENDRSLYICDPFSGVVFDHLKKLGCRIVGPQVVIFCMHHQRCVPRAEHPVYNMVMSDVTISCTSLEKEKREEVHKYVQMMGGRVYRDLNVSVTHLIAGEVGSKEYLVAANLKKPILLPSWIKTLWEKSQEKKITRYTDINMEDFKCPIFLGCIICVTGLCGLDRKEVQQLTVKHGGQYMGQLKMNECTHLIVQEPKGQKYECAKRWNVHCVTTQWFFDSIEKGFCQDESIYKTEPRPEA
GST-TOPBP1(BRCT0-2 1-290) K155E/K250E (Q92547, form named): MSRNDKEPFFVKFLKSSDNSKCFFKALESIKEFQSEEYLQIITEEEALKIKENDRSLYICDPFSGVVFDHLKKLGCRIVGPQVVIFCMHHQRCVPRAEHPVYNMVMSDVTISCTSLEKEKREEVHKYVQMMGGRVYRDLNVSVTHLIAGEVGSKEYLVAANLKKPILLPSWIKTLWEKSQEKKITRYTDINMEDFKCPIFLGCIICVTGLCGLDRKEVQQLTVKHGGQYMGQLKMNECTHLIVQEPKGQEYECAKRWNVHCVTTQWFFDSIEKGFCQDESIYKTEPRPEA
UniProt P54132: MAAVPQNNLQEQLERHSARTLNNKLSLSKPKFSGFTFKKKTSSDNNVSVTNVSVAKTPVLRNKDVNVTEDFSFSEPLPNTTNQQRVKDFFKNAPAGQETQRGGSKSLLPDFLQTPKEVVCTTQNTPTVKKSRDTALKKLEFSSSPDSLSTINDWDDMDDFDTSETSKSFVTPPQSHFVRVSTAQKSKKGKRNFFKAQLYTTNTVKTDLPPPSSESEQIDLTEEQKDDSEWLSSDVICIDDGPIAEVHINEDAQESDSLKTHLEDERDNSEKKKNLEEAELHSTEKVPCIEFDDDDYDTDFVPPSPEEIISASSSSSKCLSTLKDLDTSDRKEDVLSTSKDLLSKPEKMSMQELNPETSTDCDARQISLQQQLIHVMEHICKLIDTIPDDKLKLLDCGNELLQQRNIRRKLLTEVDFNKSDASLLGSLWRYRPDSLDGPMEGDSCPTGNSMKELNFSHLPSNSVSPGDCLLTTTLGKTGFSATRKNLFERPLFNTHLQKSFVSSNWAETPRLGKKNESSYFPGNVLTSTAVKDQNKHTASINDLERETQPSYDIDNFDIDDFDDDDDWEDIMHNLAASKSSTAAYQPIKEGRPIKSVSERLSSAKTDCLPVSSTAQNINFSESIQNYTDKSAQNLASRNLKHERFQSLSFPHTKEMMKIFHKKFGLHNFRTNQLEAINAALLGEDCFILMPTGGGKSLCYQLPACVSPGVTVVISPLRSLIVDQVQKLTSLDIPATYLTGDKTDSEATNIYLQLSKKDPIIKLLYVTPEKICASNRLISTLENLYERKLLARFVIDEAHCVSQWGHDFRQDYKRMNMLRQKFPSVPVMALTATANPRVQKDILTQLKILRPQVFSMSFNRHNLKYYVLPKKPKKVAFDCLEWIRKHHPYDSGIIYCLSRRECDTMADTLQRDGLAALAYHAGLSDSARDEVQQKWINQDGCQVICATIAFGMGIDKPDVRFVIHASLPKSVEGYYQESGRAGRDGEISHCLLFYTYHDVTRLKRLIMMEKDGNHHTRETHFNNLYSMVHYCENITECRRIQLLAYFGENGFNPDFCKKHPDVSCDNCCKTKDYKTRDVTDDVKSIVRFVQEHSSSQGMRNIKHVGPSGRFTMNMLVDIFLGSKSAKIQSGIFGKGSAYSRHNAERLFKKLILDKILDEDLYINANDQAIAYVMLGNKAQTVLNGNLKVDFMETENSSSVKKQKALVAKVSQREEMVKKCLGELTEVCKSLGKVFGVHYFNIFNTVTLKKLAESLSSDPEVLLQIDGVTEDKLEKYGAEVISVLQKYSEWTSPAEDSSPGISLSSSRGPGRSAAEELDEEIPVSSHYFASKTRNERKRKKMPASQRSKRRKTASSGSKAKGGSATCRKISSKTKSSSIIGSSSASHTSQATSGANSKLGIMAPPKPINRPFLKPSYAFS
UniProt Q8IY92: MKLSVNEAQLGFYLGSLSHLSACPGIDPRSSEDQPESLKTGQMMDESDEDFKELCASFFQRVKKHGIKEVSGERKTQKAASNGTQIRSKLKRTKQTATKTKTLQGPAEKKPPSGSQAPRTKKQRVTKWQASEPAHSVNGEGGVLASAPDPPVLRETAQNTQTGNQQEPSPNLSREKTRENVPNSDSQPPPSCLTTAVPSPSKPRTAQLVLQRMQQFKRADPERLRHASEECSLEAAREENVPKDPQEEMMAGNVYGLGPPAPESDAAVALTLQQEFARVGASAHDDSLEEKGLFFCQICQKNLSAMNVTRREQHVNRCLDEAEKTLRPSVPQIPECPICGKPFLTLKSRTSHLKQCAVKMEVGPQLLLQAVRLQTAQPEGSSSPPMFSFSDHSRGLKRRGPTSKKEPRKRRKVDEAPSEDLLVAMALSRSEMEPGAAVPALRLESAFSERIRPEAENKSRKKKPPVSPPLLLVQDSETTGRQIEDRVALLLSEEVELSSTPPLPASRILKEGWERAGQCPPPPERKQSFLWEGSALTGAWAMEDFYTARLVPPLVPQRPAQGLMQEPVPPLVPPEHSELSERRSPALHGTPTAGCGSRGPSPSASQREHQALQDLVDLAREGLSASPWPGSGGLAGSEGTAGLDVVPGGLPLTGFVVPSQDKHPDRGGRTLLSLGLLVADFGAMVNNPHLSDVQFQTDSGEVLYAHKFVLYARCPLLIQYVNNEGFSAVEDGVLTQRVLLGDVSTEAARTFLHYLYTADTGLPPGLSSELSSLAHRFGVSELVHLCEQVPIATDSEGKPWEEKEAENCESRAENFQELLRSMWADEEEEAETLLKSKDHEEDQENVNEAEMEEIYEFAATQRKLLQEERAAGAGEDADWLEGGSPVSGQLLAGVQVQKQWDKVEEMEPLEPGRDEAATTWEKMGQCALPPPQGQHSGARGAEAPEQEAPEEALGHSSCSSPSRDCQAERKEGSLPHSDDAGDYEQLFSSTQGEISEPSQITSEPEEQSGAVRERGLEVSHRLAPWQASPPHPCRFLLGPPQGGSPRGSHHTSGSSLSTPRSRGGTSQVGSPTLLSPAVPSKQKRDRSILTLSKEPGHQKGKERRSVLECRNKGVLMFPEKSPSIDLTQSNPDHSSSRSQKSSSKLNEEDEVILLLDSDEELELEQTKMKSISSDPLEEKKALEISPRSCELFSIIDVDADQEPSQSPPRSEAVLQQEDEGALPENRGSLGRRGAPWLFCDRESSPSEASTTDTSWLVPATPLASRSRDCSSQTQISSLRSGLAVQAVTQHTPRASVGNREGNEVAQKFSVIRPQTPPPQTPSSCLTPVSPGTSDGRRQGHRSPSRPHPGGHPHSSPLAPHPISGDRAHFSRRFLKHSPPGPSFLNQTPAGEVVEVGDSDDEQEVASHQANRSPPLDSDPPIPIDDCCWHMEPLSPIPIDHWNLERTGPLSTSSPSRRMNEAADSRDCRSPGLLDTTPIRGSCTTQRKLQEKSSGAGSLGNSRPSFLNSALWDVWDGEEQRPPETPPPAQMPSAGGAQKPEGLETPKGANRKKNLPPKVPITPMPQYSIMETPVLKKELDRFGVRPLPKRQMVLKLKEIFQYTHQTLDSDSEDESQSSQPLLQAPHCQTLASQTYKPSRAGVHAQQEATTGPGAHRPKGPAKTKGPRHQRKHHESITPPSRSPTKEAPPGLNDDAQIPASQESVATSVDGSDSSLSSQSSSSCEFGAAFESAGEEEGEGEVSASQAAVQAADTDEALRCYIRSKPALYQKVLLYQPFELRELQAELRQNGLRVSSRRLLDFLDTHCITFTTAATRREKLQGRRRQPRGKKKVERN

Assay [2] deals with T1, Flu-SLX4_pT1260 (human).
T1 sequence (peptide, fluorescein ('Flu') on the N-terminus; phosphothreonine at Thr1260): GYGTSWLVPATPLASRSR
Put plainly: fluorescence polarisation; 100 nM fluorescein-labelled SLX4 peptide, increasing concentrations of TOPBP1 BRCT fragment; room temperature; 25 mM HEPES pH 7.5, 150 mM NaCl, 1 mM EDTA, 0.25 mM TCEP, 0.002% Tween 20; single site with non-specific component; both purified. In general terms: In fluorescence polarisation assays a small probe gives low polarisation when free and higher when bound to something large.

In another assay the target is T2, Flu-SLX4_pT1476 (human).
T2 sequence (peptide, fluorescein ('Flu') on the N-terminus; phosphothreonine at Thr1476): GYGSPGLLDTTPIRGSCT
Described as above.

The target in assay [3] is T1, Flu-SLX4_pT1260 (human). Put plainly: condition: only after treatment of the peptide with lambda phosphatase; fluorescence polarisation; 100 nM fluorescein-labelled SLX4 peptide, increasing concentrations of TOPBP1 BRCT fragment; room temperature; 25 mM HEPES pH 7.5, 150 mM NaCl, 1 mM EDTA, 0.25 mM TCEP, 0.002% Tween 20; single site with non-specific component; both purified.

The target of assay [4] is eGFP-TOPBP1 1 + 2 (K155E + K250E) (human) (UniProt Q92547). Put plainly: co-IP; GFP-Trap co-IP from the chromatin fraction of transfected HEK293TN cells treated with 100 ng/ml nocodazole for 18 h; western blot.
Assay [5] addresses eGFP-TOPBP1 WT (human) (UniProt Q92547). Described as above.

For five substances, binding results are on record in PMC12661054, “The CIP2A-TOPBP1 axis facilitates mitotic DNA repair via MiDAS and MMEJ” (Nature Communications, 2025).

No constants are given. Whether binding was seen depends on the method and setting. For some assays here: Binding seen in cells or lysates may run through a third protein. Some results given as binding are weak or reduced against the parent protein; the word gives no strength.

For “BLM (endogenous) (from UniProt P54132 1-1417)”, the binding entry with eGFP-TOPBP1 WT (human) [1] is listed as “binds”.
With “GST-TOPBP1(BRCT0-2 1-290) K155E (from UniProt Q92547 1-290) (domain or fragment)”, in the assay with Flu-SLX4_pT1260 (human) [2], the binding entry is “no binding”.
For the substance “GST-TOPBP1(BRCT0-2 1-290) K155E/K250E (from UniProt Q92547 1-290) (domain or fragment)”, the binding result with Flu-SLX4_pT1260 (human) [2] is given as “no binding”.
As for “GST-TOPBP1(BRCT0-2 1-290) WT (from UniProt Q92547 1-290) (domain or fragment)”, the binding result in the assay with Flu-SLX4_pT1476 (human) and in the assay with Flu-SLX4_pT1260 (human) [3] was “no binding” each time.
In the case of “SLX4 (endogenous) (from UniProt Q8IY92 1-1834)”, the binding result (in assay [4]; with eGFP-TOPBP1 WT (human) [5]; in the assay with eGFP-TOPBP1 WT (human) [1]) was “binds” each time.
